Reference: PubChem BioAssay AID330 (DTP/NCI, 2004)
The list shows only some results of the screen, not a fair sample: it is rich in T/C values a quarter to a half above the control, in often repeated tests (any T/C) and in doses without a T/C. Further doses and runs are listed elsewhere. T/C is the treated group as % of the vehicle group. Some doses have a count of surviving animals in place of a T/C: the source files T/C as zero there, which appears to mark a toxic dose or a test without result, not a measured value. Some doses without a T/C left all or most animals alive at the check, yet need not have been tolerated: the source hardly ever lists a survival T/C far under the control, and the zero likely stands for such cases as well. Counts of survivors are from the toxicity check (mostly the fifth day) where no day follows; animals may have died later. Schedules are NCI's codes, read here as Q, the interval in days (D) or hours (H), X, the number of doses. Some entries were tested several times; their values stand side by side, smallest first. Some structures stand for samples that the source files as different forms (salt, stereo form or complex); doses refer to the form tested. Where survival is the endpoint, this PubChem deposit counts one and a half times the control or more as active, and values a quarter to a half above the control carry no call in these data; other NCI protocols may use other cut-offs. Some T/C values carry the count of animals alive at the toxicity check (mostly the fifth day); where none is given, no animal had died by that day.

Test system: P388 leukemia ip, CD2F1 mice, survival T/C
Assay: NCI In Vivo Anticancer Drug Screen. Data for tumor model P388 Leukemia (intraperitoneal) in CD2F1 (CDF1) mice
Details: T/C endpoint: median survival time, higher T/C = longer survival
[1] = dose: 30.0 mg/kg/injection, schedule: Q01DX005 (ip), vehicle: Klucel (hydroxypropylcellulose) (HPC)
[2] = dose: 60.0 mg/kg/injection, schedule: Q01DX005 (ip), vehicle: Klucel (hydroxypropylcellulose) (HPC)
[3] = dose: 120.0 mg/kg/injection, schedule: Q01DX005 (ip), vehicle: Klucel (hydroxypropylcellulose) (HPC)
[4] = dose: 240.0 mg/kg/injection, schedule: Q01DX005 (ip), vehicle: Klucel (hydroxypropylcellulose) (HPC)
[5] = dose: 200.0 mg/kg/injection, schedule: Q01DX005 (ip), vehicle: saline with Tween-80

## Cn1c2c(c(=O)c3c4[nH]c5c(c(=O)c4ccc31)CCCC5)CCCC2
dose: 200.0 mg/kg/injection, schedule: Q04DX003 (ip), vehicle: saline with Tween-80
  survivor count: 6 of 6

## O=C([CH-]C(=O)C(F)(F)F)C(F)(F)F.O=C([CH-]C(=O)C(F)(F)F)C(F)(F)F.O=C([CH-]C(=O)C(F)(F)F)C(F)(F)F.[Ru+3]
[1]
  survivor count: 6 of 6
[2]
  survivor count: 2 of 6
[3]
  survivor count: 0 of 6
[4]
  survivor count: 0 of 6

## CC(NCCO)C(O)c1ccccc1 (stereo unspecified)
dose: 400.0 mg/kg/injection, schedule: Q01DX009 (ip), vehicle: saline
  survivor count: 3 of 6

## CCOC(=O)CNC(=O)/C=C\C(=O)NC(=O)OCC
dose: 15.0 mg/kg/injection, schedule: Q01DX009 (ip), vehicle: saline with Tween-80
  survivor count: 2 of 6 and 6 of 6
dose: 30.0 mg/kg/injection, schedule: Q01DX009 (ip), vehicle: saline with Tween-80
  survivor count: 0 of 6
dose: 60.0 mg/kg/injection, schedule: Q01DX009 (ip), vehicle: saline with Tween-80
  survivor count: 0 of 6
dose: 120.0 mg/kg/injection, schedule: Q01DX009 (ip), vehicle: saline with Tween-80
  survivor count: 0 of 6
dose: 240.0 mg/kg/injection, schedule: Q01DX009 (ip), vehicle: saline with Tween-80
  survivor count: 0 of 6

## N#Cc1c(NC(=O)Nc2cc(C(F)(F)F)ccc2Cl)sc(=S)c2c1CCCC2
[5]
  survivor count: 1 of 5

## O=C(O)c1ccccc1.O=C(O)c1ccccc1.O=C(O)c1ccccc1.O=C(O)c1ccccc1.[Cu].[Cu]
[1]
  survivor count: 2 of 6
[2]
  survivor count: 0 of 6
[3]
  survivor count: 0 of 6
[4]
  survivor count: 0 of 6

## Nc1nc(N)c(Cl)c(Nc2cccc(Cl)c2)n1
dose: 12.5 mg/kg/injection, schedule: Q01DX001 (ip), vehicle: saline with Tween-80
  survivor count: 0 of 6
dose: 25.0 mg/kg/injection, schedule: Q01DX001 (ip), vehicle: saline with Tween-80
  survivor count: 0 of 6

## O=C1C(CO)=C[C@H](O)[C@@]2(CO)O[C@@H]12
dose: 200.0 mg/kg/injection, schedule: Q04DX002 (ip), vehicle: saline
  survivor count: 0 of 6

## CC1=C(C(=O)Nc2ccc(C)cc2C)C(c2cccc([N+](=O)[O-])c2)C(C(=O)Nc2ccc(C)cc2C)=C(C)N1
[2]
  survivor count: 6 of 6
[3]
  survivor count: 6 of 6
[4]
  survivor count: 6 of 6

## NC(=O)c1ccnn1C1OC(CO)C(O)C1O (stereo unspecified)
dose: 128.0 mg/kg/injection, schedule: Q01DX002 (ip), vehicle: saline
  survivor count: 2 of 4

## COc1ccc(C2=C(C#N)C(=C(C#N)C#N)NC(N)=C2C#N)cc1
[4]
  survivor count: 0 of 6

## CCOCCOCCOC12C(=O)C(Cl)=C(Cl)C(=O)C13C1CC2C(Cl)C13 (stereo unspecified)
dose: 100.0 mg/kg/injection, schedule: Q01DX009 (ip), vehicle: saline
  survivor count: 1 of 6
dose: 200.0 mg/kg/injection, schedule: Q01DX009 (ip), vehicle: saline
  survivor count: 0 of 6

## O=[N+]([O-])c1ccccc1/C(=N\O)c1cccs1
dose: 400.0 mg/kg/injection, schedule: Q04DX002 (ip), vehicle: Klucel (hydroxypropylcellulose) (HPC)
  survivor count: 5 of 5

## CC(C)(C)c1ccc(S(=O)(=O)C[CH2][Sn]([CH3])([CH3])[CH3])cc1
dose: 25.0 mg/kg/injection, schedule: Q01DX009 (ip), vehicle: saline
  survivor count: 1 of 6
dose: 50.0 mg/kg/injection, schedule: Q01DX009 (ip), vehicle: suspension in saline
  survivor count: 0 of 6
dose: 100.0 mg/kg/injection, schedule: Q01DX009 (ip), vehicle: suspension in saline
  survivor count: 0 of 6
dose: 200.0 mg/kg/injection, schedule: Q01DX009 (ip), vehicle: suspension in saline
  survivor count: 0 of 6

## COc1cc(OC)c(OC)cc1/C=C\c1ccc2ccccc2[n+]1C
dose: 3.12 mg/kg/injection, schedule: Q01DX009 (ip), vehicle: distilled water + Tween-80 + alcohol
  T/C: 127 % of control
dose: 6.25 mg/kg/injection, schedule: Q01DX009 (ip), vehicle: distilled water + Tween-80 + alcohol
  T/C: 132 % of control
dose: 12.5 mg/kg/injection, schedule: Q01DX009 (ip), vehicle: distilled water + Tween-80 + alcohol
  T/C: 144 % of control
dose: 25.0 mg/kg/injection, schedule: Q01DX009 (ip), vehicle: saline with Tween-80
  T/C: 127 % of control
dose: 50.0 mg/kg/injection, schedule: Q01DX009 (ip), vehicle: saline with Tween-80
  T/C: 133 % of control [4 of 5 alive]

## O=C(C1CC2CCN1CC2)N1CCN(C(=O)C2CC3CCN2CC3)CC1 (stereo unspecified)
dose: 6.25 mg/kg/injection, schedule: Q01DX005 (ip), vehicle: saline
  survivor count: 6 of 6
dose: 12.5 mg/kg/injection, schedule: Q01DX005 (ip), vehicle: saline
  survivor count: 0 of 6
dose: 25.0 mg/kg/injection, schedule: Q01DX005 (ip), vehicle: saline
  survivor count: 0 of 6
dose: 50.0 mg/kg/injection, schedule: Q01DX005 (ip), vehicle: saline
  survivor count: 0 of 6
dose: 100.0 mg/kg/injection, schedule: Q01DX005 (ip), vehicle: saline
  survivor count: 0 of 6
dose: 200.0 mg/kg/injection, schedule: Q01DX005 (ip), vehicle: saline
  survivor count: 0 of 6
dose: 240.0 mg/kg/injection, schedule: Q01DX005 (ip), vehicle: saline with Tween-80
  survivor count: 0 of 6

## O=[N+]([O-])c1cccc(OCCOc2ccccc2)c1
dose: 400.0 mg/kg/injection, schedule: Q01DX009 (ip), vehicle: other
  survivor count: 3 of 6

## Cc1cc2c(cc1C)NC(C)CC(=O)N2 (stereo unspecified)
dose: 400.0 mg/kg/injection, schedule: Q04DX003 (ip), vehicle: saline with Tween-80
  survivor count: 3 of 6

## Nc1cc2c(c[n+](Cc3ccccc3)c3ccccc23)c2ccccc12
dose: 3.13 mg/kg/injection, schedule: Q04DX003 (ip), vehicle: water
  survivor count: 1 of 6
dose: 6.25 mg/kg/injection, schedule: Q04DX003 (ip), vehicle: water
  survivor count: 0 of 6
dose: 12.5 mg/kg/injection, schedule: Q04DX003 (ip), vehicle: water
  survivor count: 6 of 6
dose: 25.0 mg/kg/injection, schedule: Q04DX003 (ip), vehicle: water
  survivor count: 6 of 6
dose: 50.0 mg/kg/injection, schedule: Q04DX003 (ip), vehicle: water
  survivor count: 4 of 6
dose: 100.0 mg/kg/injection, schedule: Q04DX003 (ip), vehicle: water
  survivor count: 3 of 6
dose: 200.0 mg/kg/injection, schedule: Q04DX003 (ip), vehicle: water
  survivor count: 2 of 6

## COC(=O)c1[nH]c(=O)c2cccnc2c1O
dose: 200.0 mg/kg/injection, schedule: Q01DX009 (ip), vehicle: saline with Tween-80
  survivor count: 3 of 6

## CN(C)CC(CN(C)C)C(=O)c1ccc(Oc2ccc(Cl)c(Cl)c2)cc1
dose: 7.5 mg/kg/injection, schedule: Q01DX005 (ip), vehicle: saline
  survivor count: 2 of 6
dose: 15.0 mg/kg/injection, schedule: Q01DX005 (ip), vehicle: saline
  survivor count: 5 of 6
dose: 30.0 mg/kg/injection, schedule: Q01DX005 (ip), vehicle: saline
  survivor count: 0 of 6
dose: 60.0 mg/kg/injection, schedule: Q01DX005 (ip), vehicle: saline
  survivor count: 0 of 6
dose: 120.0 mg/kg/injection, schedule: Q01DX005 (ip), vehicle: saline
  survivor count: 0 of 6
dose: 240.0 mg/kg/injection, schedule: Q01DX005 (ip), vehicle: saline
  survivor count: 0 of 6

## COc1cc(OC)c(/C=N/Nc2cc(C)nc3cc4c(cc23)OCO4)c(OC)c1
dose: 50.0 mg/kg/injection, schedule: Q01DX005 (ip), vehicle: Klucel (hydroxypropylcellulose) (HPC)
  survivor count: 0 of 6
dose: 100.0 mg/kg/injection, schedule: Q01DX005 (ip), vehicle: Klucel (hydroxypropylcellulose) (HPC)
  survivor count: 0 of 6
dose: 200.0 mg/kg/injection, schedule: Q01DX005 (ip), vehicle: Klucel (hydroxypropylcellulose) (HPC)
  survivor count: 0 of 6

## COc1cc(N(C)c2cc(=O)n(C)c(=O)[nH]2)ccc1C
dose: 100.0 mg/kg/injection, schedule: Q01DX005 (ip), vehicle: saline with Tween-80
  survivor count: 0 of 5
[5]
  survivor count: 0 of 5

## O=[N+]([O-])c1ccccc1-c1ccc2c(O)c(Cl)c(Cl)c(O)c2n1
dose: 200.0 mg/kg/injection, schedule: Q04DX003 (ip), vehicle: Klucel (hydroxypropylcellulose) (HPC)
  survivor count: 0 of 6
dose: 400.0 mg/kg/injection, schedule: Q04DX003 (ip), vehicle: Klucel (hydroxypropylcellulose) (HPC)
  survivor count: 0 of 6
